Source: US20150230430A1 (University of Pennsylvania, published 2015)
Results are given in words; binding and its absence hold for the method and conditions named. Some results given as binding are weak or reduced against the parent protein; the word gives no strength. Where a sequence is shown, tags or fusion partners need not be part of it.

Legend:
[1] = target: T1, Gonadotropin Releasing Hormone (GnRH) peptide (mammalian (same amino acid sequence in all mammals)); assay: GnRH ELISA (refers back to the preceding experiment)
T1 sequence (peptide, N-terminal pyroglutamic acid (pGlu); C-terminal amide (GlyNH2)): EHWSYGLRPG

[2] = target: T1, Gonadotropin Releasing Hormone (GnRH) peptide (mammalian (same amino acid sequence in all mammals)); assay: ELISA on plate-coated GnRH peptide, detection with anti-human IgG1

B1: chimeric anti-GnRH antibody (murine variable regions of hybridoma USASK/DSIL-LHRH-A1, ATCC HB-9094, fused with human IgG1 heavy chain and kappa light chain … (antibody, V domains shown)
VH: QIQLVQSGPELKKPGETVKISCKASGYPFTNYGMNWVKQAPGKGLKWMGWINTYTGEPACADDFRGRFAISLETSARTAYLQINNLINEDTATYFCARTGGGRYNYGMDYWGQGTSVTVSS
VL: QIVLTQSPAIMSASPGEKVTITCSATSSVSYIHWFQQKPGTSPKLWIYSTSNLASGVPVRFSGSGSGTSYSLTISRMEAEDAATYYCQQRSSYPPTFGGGTKLEIKR
notes: Full-length chimeric heavy and light chains: murine variable regions on human IgG1 and human kappa constant domains; Tested as filtered supernatant of transiently transfected 293 HEK cells; also called chimeric GnRH antibody; chimeric antibody
- binding [1]: binds
- binding [2]: binds
